Experimental findings from paper PMC10571636 are described below.

Chains of the proteins cited; added tags and fusions are not shown.
UniProt Q91ZW3: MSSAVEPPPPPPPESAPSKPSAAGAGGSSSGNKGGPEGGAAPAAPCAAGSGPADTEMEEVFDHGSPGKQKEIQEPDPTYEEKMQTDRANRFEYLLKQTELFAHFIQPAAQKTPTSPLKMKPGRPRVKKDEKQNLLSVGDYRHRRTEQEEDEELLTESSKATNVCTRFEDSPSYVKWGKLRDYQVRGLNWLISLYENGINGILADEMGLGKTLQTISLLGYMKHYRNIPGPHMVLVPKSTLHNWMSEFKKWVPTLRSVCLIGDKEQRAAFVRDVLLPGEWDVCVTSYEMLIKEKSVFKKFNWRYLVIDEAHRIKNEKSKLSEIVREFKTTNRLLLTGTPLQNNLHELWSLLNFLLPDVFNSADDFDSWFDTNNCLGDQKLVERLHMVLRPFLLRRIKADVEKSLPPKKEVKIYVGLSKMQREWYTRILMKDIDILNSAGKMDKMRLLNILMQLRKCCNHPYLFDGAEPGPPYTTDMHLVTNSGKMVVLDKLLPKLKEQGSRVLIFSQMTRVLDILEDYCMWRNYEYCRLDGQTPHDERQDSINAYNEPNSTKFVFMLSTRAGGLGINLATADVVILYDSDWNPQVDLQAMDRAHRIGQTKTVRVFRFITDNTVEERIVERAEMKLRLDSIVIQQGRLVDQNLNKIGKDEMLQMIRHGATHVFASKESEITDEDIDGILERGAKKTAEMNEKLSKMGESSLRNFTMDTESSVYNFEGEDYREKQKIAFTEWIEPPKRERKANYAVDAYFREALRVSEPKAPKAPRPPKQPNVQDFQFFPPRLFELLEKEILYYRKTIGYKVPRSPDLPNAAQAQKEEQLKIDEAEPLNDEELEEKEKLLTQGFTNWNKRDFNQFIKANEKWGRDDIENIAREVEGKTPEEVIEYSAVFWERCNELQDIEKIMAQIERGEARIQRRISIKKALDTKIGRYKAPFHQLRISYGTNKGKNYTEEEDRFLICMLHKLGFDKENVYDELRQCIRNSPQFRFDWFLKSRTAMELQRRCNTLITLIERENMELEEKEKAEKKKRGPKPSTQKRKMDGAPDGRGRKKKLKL
UniProt E9Q2Z1: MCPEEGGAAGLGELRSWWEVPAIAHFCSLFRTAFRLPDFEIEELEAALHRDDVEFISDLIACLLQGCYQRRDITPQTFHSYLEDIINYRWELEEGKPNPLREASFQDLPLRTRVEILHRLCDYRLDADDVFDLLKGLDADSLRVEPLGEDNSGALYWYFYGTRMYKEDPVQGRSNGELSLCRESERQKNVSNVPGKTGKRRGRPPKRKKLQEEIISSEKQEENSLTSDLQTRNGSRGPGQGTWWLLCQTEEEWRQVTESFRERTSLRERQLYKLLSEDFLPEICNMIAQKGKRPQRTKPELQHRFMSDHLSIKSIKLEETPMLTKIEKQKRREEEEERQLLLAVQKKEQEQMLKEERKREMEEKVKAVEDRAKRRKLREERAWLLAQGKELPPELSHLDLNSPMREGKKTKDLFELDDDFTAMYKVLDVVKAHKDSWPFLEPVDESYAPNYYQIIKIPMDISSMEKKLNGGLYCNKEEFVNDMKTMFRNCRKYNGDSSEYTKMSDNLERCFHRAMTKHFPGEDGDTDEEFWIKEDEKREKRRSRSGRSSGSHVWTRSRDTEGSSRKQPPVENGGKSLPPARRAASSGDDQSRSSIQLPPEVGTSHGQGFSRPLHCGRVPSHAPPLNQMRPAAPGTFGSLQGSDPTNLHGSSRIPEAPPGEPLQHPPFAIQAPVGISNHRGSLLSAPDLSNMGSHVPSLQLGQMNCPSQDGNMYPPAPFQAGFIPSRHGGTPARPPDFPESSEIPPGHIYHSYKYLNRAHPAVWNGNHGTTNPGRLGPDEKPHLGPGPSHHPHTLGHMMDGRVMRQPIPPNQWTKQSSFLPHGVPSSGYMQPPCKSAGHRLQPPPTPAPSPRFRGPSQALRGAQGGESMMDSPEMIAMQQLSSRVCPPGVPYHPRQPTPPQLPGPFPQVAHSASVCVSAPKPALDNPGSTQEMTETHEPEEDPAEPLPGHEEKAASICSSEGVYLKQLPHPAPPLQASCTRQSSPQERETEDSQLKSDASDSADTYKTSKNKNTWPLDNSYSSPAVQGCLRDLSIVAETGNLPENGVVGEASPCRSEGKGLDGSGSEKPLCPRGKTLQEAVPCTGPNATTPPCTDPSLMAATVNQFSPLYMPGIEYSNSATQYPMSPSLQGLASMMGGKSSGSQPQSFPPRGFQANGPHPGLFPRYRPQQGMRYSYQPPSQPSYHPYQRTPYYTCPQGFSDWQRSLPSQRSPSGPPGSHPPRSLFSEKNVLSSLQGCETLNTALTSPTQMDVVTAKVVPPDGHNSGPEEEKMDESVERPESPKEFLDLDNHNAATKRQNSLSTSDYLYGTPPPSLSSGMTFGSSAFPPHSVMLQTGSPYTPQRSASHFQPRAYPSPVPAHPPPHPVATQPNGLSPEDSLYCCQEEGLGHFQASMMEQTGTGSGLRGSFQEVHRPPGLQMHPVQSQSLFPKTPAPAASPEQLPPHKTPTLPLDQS

For assay [1], the target named is Snf2h protein (encoded by Smarca5) (mouse (endogenous in cerebellum)) (UniProt Q91ZW3). As to the kind of experiment: co-IP; Smarca1 cKO mouse cerebellar extracts (Snf2l protein absent); IP with Snf2h antibody (Abcam ab72499) or rabbit IgG, overnight at 4 °C, Protein A/G magnetic beads; lysis buffer 20 mM Tris-HCl pH 8, 137 mM NaCl, 1% NP-40, 2 mM EDTA; washes in PBS with 0.3% triton-X; immunoblot for Cecr2. (In general: In western blotting, separated proteins are transferred to a membrane and probed.)

Assay [2] has the same target. As to the kind of experiment: condition: only in WT cerebellar extracts, where Snf2l protein is present; co-IP; WT mouse cerebellar extracts (Snf2l protein present); IP with Snf2h antibody (Abcam ab72499) or rabbit IgG, overnight at 4 °C, Protein A/G magnetic beads; lysis buffer 20 mM Tris-HCl pH 8, 137 mM NaCl, 1% NP-40, 2 mM EDTA; washes in PBS with 0.3% triton-X; immunoblot for Cecr2.

These are yes or no findings as the source states them, for the method shown. Binding seen in cells or lysates may run through a third protein. Some results given as binding are weak or reduced against the parent protein; the word gives no strength.

Regarding “Cecr2 protein (from UniProt E9Q2Z1 1-1453)”, the binding result is reported as “binds” in assay [1] and “no binding” in assay [2].
